{"source": "PubChem BioAssay AID493014", "about": "(National Center for Advancing Translational Sciences (NCATS), 2011)", "assay": "qHTS Assay to Find Inhibitors of Chronic Active B-Cell Receptor Signaling", "details": "ABC-DLBCL IkBa-CBG/CBR reporter, luminescence ratio (green luciferase fused to IkBa over red control in TMD8 lymphoma cells), 4 h", "summary_of_the_method": "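Cell line TMD8 (human ABC DLBCL), stably expressing tet-inducible CBG68-IkBa fusion and CBR; IMDM/0.5% FBS; cpd up to 46 uM; dox induction, 4 h, 37C/5% CO2; dual luminescence; green/red ratio; MG132 control.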", "key": {"[1]": {"details": "measured here: CBR red luminescence, cell number"}, "[2]": {"details": "measured here: IkBa-CBG green luminescence"}}, "note": "The list shows a part of the results. Shown are side measurements of this screen, not its main read-out; they come without a call. Most of these compounds were active or inconclusive in the main read-out, so they are no random draw. The note in brackets gives the kind of curve behind each potency; many fits are weak.", "data": [{"molecule": "COc1ccc(-c2noc(C3CCCN(C(=O)Nc4ccccc4F)C3)n2)cc1", "note": "(stereo not drawn)", "values": [{"measurement": "AC50", "setting": "[1]", "value": "35.5 µM [falling, single point]"}]}, {"molecule": "Cc1[nH]n(-c2ccccc2)c(=O)c1N=Nc1cccc(C(=O)O)c1", "values": [{"measurement": "AC50", "setting": "[1]", "value": "0.631 µM [falling, full curve]"}]}, {"molecule": "O=C(CN(Cc1ccccc1Cl)C(=O)Cn1nnc(-c2cccs2)n1)NCC1CCCO1", "note": "(stereo not drawn)", "values": [{"measurement": "AC50", "setting": "[1]", "value": "10 µM [rising, partial curve, poor fit]"}]}, {"molecule": "CC(C)c1ccc(Nc2nnc(SC3CCOC3=O)s2)cc1", "note": "(stereo not drawn)", "values": [{"measurement": "AC50", "setting": "[1]", "value": "5.8 µM [rising, single point]"}]}, {"molecule": "N#Cc1cnc2sc3ccccc3n2c1=N", "values": [{"measurement": "AC50", "setting": "[1]", "value": "29.1 µM [falling, single point]"}]}, {"molecule": "COc1ccc(N(CC(=O)N/N=C/c2ccc(F)cc2)S(=O)(=O)c2ccccc2)cc1", "values": [{"measurement": "AC50", "setting": "[1]", "value": "11.2 µM [falling, single point]"}]}, {"molecule": "CN1CCN(C(=O)c2ccc(-c3ccc(Br)cc3)o2)CC1", "values": [{"measurement": "AC50", "setting": "[1]", "value": "0.184 µM [rising, full curve, poor fit]"}]}, {"molecule": "CCCNC(=O)Cn1nc(C(F)(F)F)c2c1CCCC2", "values": [{"measurement": "AC50", "setting": "[1]", "value": "18.4 µM [falling, single point]"}]}, {"molecule": "CC(=O)c1cc2c(=O)c3cc(C)ccc3oc2nc1C", "values": [{"measurement": "AC50", "setting": "[1]", "value": "1.84 µM [rising, full curve, poor fit]"}]}, {"molecule": "Clc1ccc(OCCn2c(-c3ccco3)nc3ccccc32)cc1", "values": [{"measurement": "AC50", "setting": "[1]", "value": "23.1 µM [falling, single point]"}]}, {"molecule": "CC(C)C(=O)NC(=S)N1CCc2ccccc21", "values": [{"measurement": "AC50", "setting": "[1]", "value": "0.651 µM [falling, partial curve, poor fit]"}]}, {"molecule": "COc1ccc(-c2cc(C(=O)N3CCCCCC3)no2)cc1", "values": [{"measurement": "AC50", "setting": "[1]", "value": "31.6 µM [falling, single point]"}]}, {"molecule": "Cc1ccc(NC(=O)Nc2ccc3c(c2)CCC3)cc1C", "values": [{"measurement": "AC50", "setting": "[1]", "value": "0.708 µM [rising, full curve, poor fit]"}]}, {"molecule": "COc1ccc(-c2cn[nH]c2-c2ccc(OCc3ccccc3F)cc2O)cc1OC", "values": [{"measurement": "AC50", "setting": "[1]", "value": "14.1 µM [falling, single point]"}]}, {"molecule": "O=S(=O)(NCc1ccc(Cl)cc1)NCc1ccccc1F", "values": [{"measurement": "AC50", "setting": "[1]", "value": "11.2 µM [rising, single point]"}]}, {"molecule": "O=C(C(=O)N1CCCc2ccccc21)c1c[nH]c2ccccc12", "values": [{"measurement": "AC50", "setting": "[1]", "value": "10 µM [falling, partial curve]"}]}, {"molecule": "C/C(CC(=O)Nc1ccc(OCc2ccccc2)cc1)=N\\NC(=O)C(=O)Nc1cccc(C)c1", "values": [{"measurement": "AC50", "setting": "[1]", "value": "16.4 µM [falling, partial curve, poor fit]"}]}, {"molecule": "O=C(NCc1ccccc1Cl)C1CCC(CNc2nc(=S)[nH]c3ccccc23)CC1", "note": "(stereo not drawn)", "values": [{"measurement": "AC50", "setting": "[1]", "value": "10 µM [rising, partial curve, poor fit]"}]}, {"molecule": "Cc1ccc2nc(CSc3nnc(Nc4ccccc4F)s3)cc(=O)n2c1", "values": [{"measurement": "AC50", "setting": "[1]", "value": "3.66 µM [falling, full curve]"}]}, {"molecule": "Cc1nnc(SCC(=O)Nc2cc(C(F)(F)F)ccc2N2CCOCC2)o1", "values": [{"measurement": "AC50", "setting": "[1]", "value": "0.731 µM [falling, full curve]"}, {"measurement": "AC50", "setting": "[2]", "value": "0.82 µM [rising, full curve, poor fit]"}]}, {"molecule": "COc1ccc2cc(C(=O)N3CCN(C)CC3)[nH]c2c1", "values": [{"measurement": "AC50", "setting": "[1]", "value": "17.8 µM [falling, single point]"}]}, {"molecule": "COc1ccc(C(=O)c2cnc(C(C)C)n2C)cc1", "values": [{"measurement": "AC50", "setting": "[1]", "value": "6.51 µM [rising, partial curve, poor fit]"}]}, {"molecule": "CCc1nnc(NC(=O)c2ccc(Cl)nc2)s1", "values": [{"measurement": "AC50", "setting": "[1]", "value": "10 µM [falling, partial curve, poor fit]"}]}, {"molecule": "COc1ccc2[nH]cc(C(=O)CN3CCCC(C)(C)C3)c2c1", "values": [{"measurement": "AC50", "setting": "[1]", "value": "8.91 µM [falling, single point]"}]}, {"molecule": "Cc1ccc(Cn2c(CN(C)Cc3ccccc3)nc3c2c(=O)n(C)c(=O)n3C)cc1", "values": [{"measurement": "AC50", "setting": "[1]", "value": "8.2 µM [falling, single point]"}]}, {"molecule": "c1ccc(Cc2cc(-c3ccccc3)on2)cc1", "values": [{"measurement": "AC50", "setting": "[1]", "value": "1.84 µM [rising, full curve, poor fit]"}]}, {"molecule": "O=C(COc1ccc([N+](=O)[O-])cc1)Nc1cc(C(=O)O)cc(C(=O)O)c1", "values": [{"measurement": "AC50", "setting": "[1]", "value": "11.2 µM [falling, partial curve, poor fit]"}]}, {"molecule": "Cc1nn(Cc2c(F)c(F)c(F)c(F)c2F)c(C)c1NC(=O)c1ccc(COc2cc(Cl)ccc2Cl)cc1", "values": [{"measurement": "AC50", "setting": "[1]", "value": "3.98 µM [rising, full curve, poor fit]"}]}, {"molecule": "O=C(NCCC1CCCCN1S(=O)(=O)c1ccc(F)cc1)C(=O)Nc1ccccc1", "note": "(stereo not drawn)", "values": [{"measurement": "AC50", "setting": "[1]", "value": "1.64 µM [falling, full curve, poor fit]"}]}, {"molecule": "Cc1cc(C)c2c(n1)sc1c(=O)n(CC(=O)c3ccccc3)cnc12", "values": [{"measurement": "AC50", "setting": "[1]", "value": "25.1 µM [rising, single point]"}]}, {"molecule": "O=C(Nc1nc2ccc(Cl)cc2s1)C1CCCO1", "note": "(stereo not drawn)", "values": [{"measurement": "AC50", "setting": "[1]", "value": "11.6 µM [falling, partial curve]"}]}, {"molecule": "CN1CCN(/N=C/c2ccc(OCc3ccccc3)cc2)CC1", "values": [{"measurement": "AC50", "setting": "[1]", "value": "14.1 µM [rising, single point]"}]}, {"molecule": "C#CCn1c(=NC(=O)CSC(C)=O)sc2cc(F)ccc21", "values": [{"measurement": "AC50", "setting": "[1]", "value": "5.62 µM [rising, full curve, poor fit]"}, {"measurement": "AC50", "setting": "[2]", "value": "7.08 µM [falling, partial curve, poor fit]"}]}, {"molecule": "COc1ccccc1NC(=O)C1(C)Cc2ccccc2C(=O)O1", "note": "(stereo not drawn)", "values": [{"measurement": "AC50", "setting": "[1]", "value": "29.1 µM [falling, single point]"}]}, {"molecule": "CC1CN(C(=O)Nc2ccc3snnc3c2)c2ccccc21", "note": "(stereo not drawn)", "values": [{"measurement": "AC50", "setting": "[1]", "value": "1.84 µM [rising, partial curve, poor fit]"}]}, {"molecule": "CC(=O)O/N=C(/c1nonc1N)N1CCN(c2ccc([N+](=O)[O-])cc2Cl)CC1", "values": [{"measurement": "AC50", "setting": "[1]", "value": "20.6 µM [rising, partial curve, poor fit]"}]}, {"molecule": "COc1cc2nc(NC(=O)c3ccc(S(=O)(=O)N4CCCC4)cc3)sc2cc1OC", "values": [{"measurement": "AC50", "setting": "[1]", "value": "7.94 µM [rising, partial curve, poor fit]"}]}, {"molecule": "O=C(COCc1cc(-c2ccc3c(c2)OCO3)on1)N1CCN(c2cccc(C(F)(F)F)c2)CC1", "values": [{"measurement": "AC50", "setting": "[1]", "value": "17.8 µM [falling, single point]"}]}, {"molecule": "CC(C)NC(=O)CSc1nnc(COc2ccccc2Cl)o1", "values": [{"measurement": "AC50", "setting": "[1]", "value": "0.00651 µM [rising, full curve, poor fit]"}]}, {"molecule": "CC(OC(=O)c1cccc(-n2cnnn2)c1)C(=O)c1ccccc1", "note": "(stereo not drawn)", "values": [{"measurement": "AC50", "setting": "[1]", "value": "13 µM [rising, partial curve]"}]}, {"molecule": "C/C(=N\\NC(=O)c1ccoc1C)c1ccccc1O", "values": [{"measurement": "AC50", "setting": "[1]", "value": "22.4 µM [falling, single point]"}]}]}
